In publication PMC10279913:

T1: HA::AdipoR2 (human) (UniProt Q86V24)
T1 sequence: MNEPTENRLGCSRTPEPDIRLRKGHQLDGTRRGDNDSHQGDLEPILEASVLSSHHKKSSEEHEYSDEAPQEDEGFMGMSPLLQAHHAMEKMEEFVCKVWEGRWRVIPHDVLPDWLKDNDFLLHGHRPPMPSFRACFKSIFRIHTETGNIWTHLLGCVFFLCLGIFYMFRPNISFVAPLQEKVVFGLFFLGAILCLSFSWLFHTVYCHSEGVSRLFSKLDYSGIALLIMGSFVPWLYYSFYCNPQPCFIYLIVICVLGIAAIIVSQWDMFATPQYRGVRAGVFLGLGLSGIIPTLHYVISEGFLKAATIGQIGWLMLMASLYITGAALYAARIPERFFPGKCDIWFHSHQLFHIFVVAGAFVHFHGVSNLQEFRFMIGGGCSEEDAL

B1: Phospholipase B-like 1 (protein, UniProt Q6P4A8 39-553)
chain: GVYYATAYWMPAEKTVQVKNVMDKNGDAYGFYNNSVKTTGWGILEIRAGYGSQTLSNEIIMFVAGFLEGYLTAPHMNDHYTNLYPQLITKPSIMDKVQDFMEKQDKWTRKNIKEYKTDSFWRHTGYVMAQIDGLYVGAKKRAILEGTKPMTLFQIQFLNSVGDLLDLIPSLSPTKNGSLKVFKRWDMGHCSALIKVLPGFENILFAHSSWYTYAAMLRIYKHWDFNVIDKDTSSSRLSFSSYPGFLESLDDFYILSSGLILLQTTNSVFNKTLLKQVIPETLLSWQRVRVANMMADSGKRWADIFSKYNSGTYNNQYMVLDLKKVKLNHSLDKGTLYIVEQIPTYVEYSEQTDVLRKGYWPSYNVPFHEKIYNWSGYPLLVQKLGLDYSYDLAPRAKIFRRDQGKVTDTASMKYIMRYNNYKKDPYSRGDPCNTICCREDLNSPNPSPGGCYDTKVADIYLASQYTSYAISGPTVQGGLPVFRWDRFNKTLHQGMPEVYNFDFITMKPILKLDIK
B2: Prostaglandin E synthase 3 (protein, UniProt Q15185 1-160)
chain: MQPASAKWYDRRDYVFIEFCVEDSKDVNVNFEKSKLTFSCLGGSDNFKHLNEIDLFHCIDPNDSKHKRTDRSILCCLRKGESGQSWPRLTKERAKLNWLSVDFNNWKDWEDDSDEDMSNFDRFSEMMNNMGGDEDVDLPEVDGADDDSQDSDDEKMPDLE
B3: Dolichyl-diphosphooligosaccharide–protein glycosyltransferase subunit 1 (protein, UniProt P04843 24-607)
chain: ASSEAPPLINEDVKRTVDLSSHLAKVTAEVVLAHLGGGSTSRATSFLLALEPELEARLAHLGVQVKGEDEEENNLEVRETKIKGKSGRFFTVKLPVALDPGAKISVIVETVYTHVLHPYPTQITQSEKQFVVFEGNHYFYSPYPTKTQTMRVKLASRNVESYTKLGNPTRSEDLLDYGPFRDVPAYSQDTFKVHYENNSPFLTITSMTRVIEVSHWGNIAVEENVDLKHTGAVLKGPFSRYDYQRQPDSGISSIRSFKTILPAAAQDVYYRDEIGNVSTSHLLILDDSVEMEIRPRFPLFGGWKTHYIVGYNLPSYEYLYNLGDQYALKMRFVDHVFDEQVIDSLTVKIILPEGAKNIEIDSPYEISRAPDELHYTYLDTFGRPVIVAYKKNLVEQHIQDIVVHYTFNKVLMLQEPLLVVAAFYILFFTVIIYVRLDFSITKDPAAEARMKVACITEQVLTLVNKRIGLYRHFDETVNRYKQSRDISTLNSGKKSLETEHKALTSEIALLQSRLKTEGSDLCDRVSEMQKLDAQVKELVLKSAVEAERLVAGKLKKDTYIENEKLISGKRQELVTKIDHILDAL
B4: Short-chain dehydrogenase/reductase family 9C member 7 (protein, UniProt Q8NEX9 1-313)
chain: MAALTDLSFMYRWFKNCNLVGNLSEKYVFITGCDSGFGNLLAKQLVDRGMQVLAACFTEEGSQKLQRDTSYRLQTTLLDVTKSESIKAAAQWVRDKVGEQGLWALVNNAGVGLPSGPNEWLTKDDFVKVINVNLVGLIEVTLHMLPMVKRARGRVVNMSSSGGRVAVIGGGYCVSKFGVEAFSDSIRRELYYFGVKVCIIEPGNYRTAILGKENLESRMRKLWERLPQETRDSYGEDYFRIYTDKLKNIMQVAEPRVRDVINSMEHAIVSRSPRIRYNPGLDAKLLYIPLAKLPTPVTDFILSRYLPRPADSV
B5: Serine hydroxymethyltransferase, mitochondrial (enzyme, UniProt P34897 30-504)
chain: NAAQTQTGEANRGWTGQESLSDSDPEMWELLQREKDRQCRGLELIASENFCSRAALEALGSCLNNKYSEGYPGKRYYGGAEVVDEIELLCQRRALEAFDLDPAQWGVNVQPYSGSPANLAVYTALLQPHDRIMGLDLPDGGHLTHGYMSDVKRISATSIFFESMPYKLNPKTGLIDYNQLALTARLFRPRLIIAGTSAYARLIDYARMREVCDEVKAHLLADMAHISGLVAAKVIPSPFKHADIVTTTTHKTLRGARSGLIFYRKGVKAVDPKTGREIPYTFEDRINFAVFPSLQGGPHNHAIAAVAVALKQACTPMFREYSLQVLKNARAMADALLERGYSLVSGGTDNHLVLVDLRPKGLDGARAERVLELVSITANKNTCPGDRSAITPGGLRLGAPALTSRQFREDDFRRVVDFIDEGVNIGLEVKSKTAKLQDFKSFLLKDSETSQRLANLRQRVEQFARAFPMPGFDEH
B6: Signal recognition particle 9-kDa protein (protein, UniProt P49458 1-86)
chain: MPQYQTWEEFSRAAEKLYLADPMKARVVLKYRHSDGNLCVKVTDDLVCLVYKTDQAQDVKKIEKFHSQLMRLMVAKEARNVTMETE

Each binder was assayed against T1, HA::AdipoR2 (human) (assay: affinity purification with mass spectrometry; anti-HA immunoprecipitation (rabbit mAb C29F4 + protein A-agarose, 3 h) from lysates of HEK293 cells stably expressing HA-tagged AdipoR2; 25 mM Tris pH 7.5, 300 mM NaCl, 0.1% NP-40; eluted with 0.2 M glycine pH 2.5; 4 IPs; control: cells without HA-tagged protein).

binding, binds:
B1
B2
B3
B4
B5
B6

These are yes or no findings as the source states them, for the method shown. Binding seen in cells or lysates may run through a third protein. A yes stands for co-enrichment or nearness to the bait. Other partners may have been found. Sequences can lack the tags named with a protein.
